These are yes or no findings as the source states them, for the method shown.
Target: Δ28-269 SaMGT (truncated monoglycosyltransferase from S. aureus with its transmembrane domain) (S. aureus) (UniProt Q99T05)
Test: crystal structure

B1: Δ28-269 SaMGT (truncated monoglycosyltransferase from S. aureus with its transmembrane domain) (domain or fragment, UniProt Q99T05 28-269)
chain: QPVGKPPKKKKSKRILLKILLTILIIIALFIGIMYFLSTRDNVDELRKIENKSSFVSADNMPEYVKGAFISMEDERFYNHHGFDLKGTTRALFSTISDRDVQGGSTITQQVVKNYFYDNDRSFTRKVKELFVAHRVEKQYNKNEILSFYLNNIYFGDNQYTLEGAANHYFGTTVNKNSTTMSHITVLQSAILASKVNAPSVYNINNMSENFTQRVSTNLEKMKQQNYINETQYQQAMSQLNR
binding: no binding
